Measurements taken from patent publication US11447809B2, “Evolution of tRNA synthetases” (President and Fellows of Harvard College, priority 2017, dated 2022).
At least one read-out could not be matched to a standard name with certainty.

B1: chPylRS: chimera of residues 1-149 of MbPylRS and residues 185-454 of MmPylRS; progenitor enzyme (SEQ ID NO: 5) (protein)
chain: MDKKPLDVLISATGLWMSRTGTLHKIKHYEVSRSKIYIEMACGDHLVVNNSRSCRTARAFRHHKYRKTCKRCRVSDEDINNFLTRSTEGKTSVKVKVVSAPKVKKAMPKSVSRAPKPLENPVSAKASTDTSRSVPSPAKSTPNSPVPTSASAPALTKSQTDRLEVLLNPKDEISLNSGKPFRELESELLSRRKKDLQQIYAEERENYLGKLEREITRFFVDRGFLEIKSPILIPLEYIERMGIDNDTELSKQIFRVDKNFCLRPMLAPNLYNYLRKLDRALPDPIKIFEIGPCYRKESDGKEHLEEFTMLNFCQMGSGCTRENLESIITDFLNHLGIDFKIVGDSCMVYGDTLDVMHGDLELSSAVVGPIPLDREWGIDKPWIGAGFGLERLLKVKHDFKNIKRAARSESYYNGISTNL
B2: p-NFRS: previously evolved MjTyrRS variant charging p-nitro-L-phenylalanine; SEQ ID NO: 18, 22 (protein)
chain: MDEFEMIKRNTSEIISEEELREVLKKDEKSALIGFEPSGKIHLGHYLQIKKMIDLQNAGFDIIILLADLHAYLNQKGELDEIRKIGDYNKKVFEAMGLKAKYVYGSSFQLDKDYTLNVYRLALKTTLKRARRSMELIAREDENPKVAEVIYPIMQVNPLNYEGVDVAVGGMEQRKIHMLARELLPKKVVCIHNPVLTGLDGEGKMSSSKGNFIAVDDSPEEIRAKIKKAYCPAGVVEGNPIMEIAKYFLEYPLTIKRPEKFGGDLTVNSYEELESLFKNKELHPMRLKNAVAEELIKILEPIRKRL

Tests used:
[1] = system: tRNA^Pyl; experiment: Aminoacylation assay of chPylRS variants (32P-labeled tRNA, nuclease P1/TLC); assay type: biochemical; settings: BocK substrate; Table 7
Procedure: (§1) The genes of chPylRS variants and MjTyrRS variants were cloned into pET15a and transformed into BL21(DE3) (New England Biolabs) cells for expression. Cells were grown in 500 mL of LB media supplemented with 100 m/mL ampicillin at 37° C. to an A600 of 0.6-0.8, and protein expression was induced by addition of 0.5 mM IPTG (chPylRS variants) or 1 mM IPTG (MjTyrRS variants). Cells were incubated at 30° C. for an additional 6 h (chPylRS variants) or 4 h (MjTyrRS variants) and harvested by centrifugation at 5,000 g for 10 min at 4° C. The cell pellet was resuspended in 15 mL of lysis buffer (50 mM Tris (pH 7.5), 300 mM NaCl, 20 mM imidazole), and cells were lysed by sonication. The crude extract was centrifuged at 20,000 g for 30 min at 4° C. The soluble fraction was loaded onto a column containing 2 mL of Ni-NTA resin (Qiagen) previously equilibrated with 20 mL of lysis buffer. The column was washed with 20 mL of lysis buffer. The bound protein was then eluted with 2 mL of 50 mM Tris (pH 7.5), 300 mM NaCl, 300 mM imidazole. The purified protein was dialyzed with 50 mM HEPES-KOH (pH 7.5), 50 mM KCl, 1 mM DTT and 50% glycerol and stored at −80° C. for further studies.
Template plasmid containing the tRNA^Pyl or tRNACUA^Tyr/Opt gene was purified with the plasmid maxi kit (Qiagen). The plasmid containing tRNA^Pyl (100 μg) was digested with BstNI (New England Biolabs). […]

[2] = system: tRNACUA^Tyr/Opt; experiment: Aminoacylation assay of MjTyrRS variants (32P-labeled tRNA, nuclease P1/TLC); assay type: biochemical
Procedure: as §1
Template plasmid containing the tRNA^Pyl or tRNACUA^Tyr/Opt gene was purified with the plasmid maxi kit (Qiagen). The plasmid containing tRNA^Pyl (100 μg) was digested with BstNI (New England Biolabs). The tRNACUA^Tyr/Opt gene was amplified by PCR. The BstNI digested template DNA or PCR product was purified by phenol chloroform extraction, followed by ethanol precipitation and dissolved in double distilled water. A His-tagged T7 RNA polymerase was purified over a column of Ni-NTA resin according to manufacturer's instructions (Qiagen). The transcription reaction (40 mM Tris (pH 8); 4 mM each of UTP, CTP, GTP, and ATP at pH 7.0; 22 mM MgCl2; 2 mM spermidine; 10 mM DTT; 6 μg pyrophosphatase (Roche Applied Science); 60 m/mL of DNA template, approximately 0.2 mg/mL T7 RNA polymerase) was performed in 10 mL reactions overnight at 37° C. […]

Row | Molecule | kcat/KM^tRNA [1] [μM^−1 · s^−1 × 10^−3] | kcat/KM^ncAA ([2]; amino acid Phe) [mM^−1 · s^−1 × 10^−3] | kcat/KM^ncAA ([2]; ncAA p-IF) [mM^−1 · s^−1 × 10^−3] | kcat/KM^ncAA ([2]; ncAA p-NF) [mM^−1 · s^−1 × 10^−3]
1 | B1 | 45.69 | – | – | –
2 | B2 | – | 0.875 | 0.39 | 0.38
